# Source: PubChem BioAssay AID1671190 (National Center for Advancing Translational Sciences (NCATS), 2021)
# Sequences of proteins named here, by UniProt entry; tags and fusion partners are left off. A change or cut given only in a name is not applied to a line headed by its entry.
# UniProt P18054: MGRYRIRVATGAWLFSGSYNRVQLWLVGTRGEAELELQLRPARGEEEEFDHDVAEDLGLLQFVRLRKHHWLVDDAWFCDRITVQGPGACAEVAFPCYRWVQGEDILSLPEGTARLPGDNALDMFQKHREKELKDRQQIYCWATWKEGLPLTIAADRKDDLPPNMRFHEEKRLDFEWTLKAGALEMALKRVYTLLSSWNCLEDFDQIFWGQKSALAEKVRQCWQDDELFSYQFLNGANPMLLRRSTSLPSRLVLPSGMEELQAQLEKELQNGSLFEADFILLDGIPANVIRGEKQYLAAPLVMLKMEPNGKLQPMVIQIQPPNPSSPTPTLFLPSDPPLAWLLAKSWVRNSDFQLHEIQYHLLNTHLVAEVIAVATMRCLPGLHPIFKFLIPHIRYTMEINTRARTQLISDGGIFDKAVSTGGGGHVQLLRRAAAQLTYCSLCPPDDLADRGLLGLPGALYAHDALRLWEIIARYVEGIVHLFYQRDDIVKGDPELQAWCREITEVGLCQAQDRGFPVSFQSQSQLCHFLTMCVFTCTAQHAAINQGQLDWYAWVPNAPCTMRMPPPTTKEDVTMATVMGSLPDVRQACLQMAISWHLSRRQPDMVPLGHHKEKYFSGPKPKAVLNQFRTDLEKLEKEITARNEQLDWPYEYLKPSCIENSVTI
# Out of some 580,000 compounds screened, about 6,100 (1.1%) were called active. This list was built around the results that the source calls inconclusive (neither active nor inactive); the mix of calls is not that of the screen. Calls follow the shape of the dose curve; as a rule, active = well fitted inhibition curve with a large enough effect; inconclusive = small, poorly fitted or top-dose-only effect, or another doubt; inactive = no such curve, though single readings can be large or run the other way. Potencies beside an inconclusive call are fits to weak or partial responses and may not hold up.
# Target: Polyunsaturated fatty acid lipoxygenase ALOX12 (Homo sapiens) (UniProt P18054)
# Assay: Primary qHTS assay for inhibitors of human arachidonate 12S-lipoxygenase (ALOX12): Round 2
# Details: purified 12hLO, xylenol orange hydroperoxide absorbance; activity change, negative = inhibition: at 108 µM (top of the series) unless noted
# Method in brief: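 Purified human 12hLO (150 nM final) in 25 mM Hepes, 0.01% Triton X-100, pH 7.0 was preincubated 15 min at room temperature with compound. Then 40 uM arachidonic acid was added, 30 min. Hydroperoxide was read by Fe-XO absorbance ratio 573/405 nm.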
# % is scaled to controls: 0 for no effect and ±100 for the full control effect; potency is read from the fitted curve at half-maximal effect.
SMILES,Potency,"activity change, negative = inhibition"
Cc1ccc(-n2cc3c(c2-c2ccccc2Br)c(=O)n(C)c(=O)n3C)cc1N,"inconclusive: 100 µM [inhibitor, partial curve, poor fit]",–
Clc1ccc(-c2nc(NCCN3CCOCC3)c3ccccc3n2)cc1,"inconclusive: 79.4 µM [inhibitor, partial curve, poor fit]",–
O=C(CCNS(=O)(=O)c1ccc(OC(F)(F)F)cc1)N1CCN(C/C=C/c2ccccc2)CC1,–,inactive: -25.5%
Cc1cccc(NC(=S)Nc2ccc(N(C)C)cc2)c1,"inconclusive: 28.2 µM [inhibitor, partial curve, poor fit]",–
Cc1ccc(-c2cc(C(=O)NCCc3ccccn3)c3ccccc3n2)c(C)c1,–,inactive: -1.47%
O=C1NC2(CCN(C(=O)c3ccc(F)cc3)C2)OCc2ccccc21 (stereo unspecified),–,inactive: 32%
COc1ccc(NC(=O)c2ccco2)cc1NC(=O)COc1cc(C)cc(C)c1,"inconclusive: 63.1 µM [inhibitor, partial curve, poor fit]",–
Cn1c(=O)n([C@H]2CCCN(C(=O)c3ccn[nH]3)C2)c2ncccc21,–,inactive: 36.6%
O=C(O)COc1c(Br)cc(/C=C2/NC(=O)NC2=O)cc1Br,"inconclusive: 35.5 µM [inhibitor, partial curve, poor fit]",–
CC(C)c1nc2c(c(-c3ccc(O)cc3)n1)CN([S+](=O)([O-])c1ccccc1)CC2,–,inactive: -3.74%
O=C(Nc1ccccc1F)c1nc[nH]c1C(=O)NCc1ccccc1,"inconclusive: 100 µM [inhibitor, single point]",–
O=C(c1ccc(F)cc1)N1CCc2nc(C3CC3)nc(-c3ccc(Cl)cc3)c2C1,"inconclusive: 35.5 µM [inhibitor, partial curve]",–
COc1ccc(-c2nc(Nc3ccccc3C)c3ccccc3n2)cc1,–,inactive: -44.2%
COc1ccccc1N1CCN(S(=O)(=O)c2ccc(F)c(C(=O)Nc3ccc(C)c(F)c3)c2)CC1,–,inactive: -22.3%
CC(C)OC(=O)CC(NC(=O)c1cccc(CS(C)(=O)=O)c1)c1ccccc1 (stereo unspecified),–,inactive: 1.4%
S=C(NN=C1CCCCCC1)Nc1ccc(Cl)cc1,"inconclusive: 50.1 µM [inhibitor, partial curve, poor fit]",–
COc1ccc(NC(=O)c2cc(-c3cc(C)cc(F)c3)n[nH]2)cc1OC,–,inactive: -4.73%
CCN(CC)CCCNC(=O)NC12CC3CC(CC(C3)C1)C2,"inconclusive: 89.1 µM [inhibitor, single point]",–
COc1ccc(CCNC(=O)c2cc(Sc3cccc(Cl)c3)nc3ccccc23)cc1OC,–,inactive: 0%
CCCOC(=O)/C(=C\C=C\c1ccccc1)NC(=O)c1ccccc1,"inconclusive: 100 µM [inhibitor, single point]",–
CC1(C(=O)NS(=O)(=O)c2ccc(Br)cc2)CCN1C(=O)C1(c2ccccc2)CC1 (stereo unspecified),–,inactive: -29.6%
O=C(c1cncc(F)c1)N1CCOCC2(CN(Cc3ccccc3)C2)C1,"inconclusive: 22.4 µM [inhibitor, full curve, poor fit]",–

SMILES,Potency,"activity change, negative = inhibition"
C/C(=N\NS(=O)(=O)c1ccc(C)c([N+](=O)[O-])c1)c1cccs1,"inconclusive: 63.1 µM [inhibitor, partial curve, poor fit]",–
CC(C)(C)NS(=O)(=O)c1ccc2[nH]c3c(c2c1)CCCCC3,"inconclusive: 89.1 µM [inhibitor, single point]",–
COc1cc2ccccc2cc1C(=O)N(CCN(C)C)c1nc2ccc(Br)cc2s1,"inconclusive: 35.5 µM [inhibitor, partial curve, poor fit]",–
O=C(NCCc1nnc2ccc(NCCCN3CCOCC3)nn12)c1ccccc1,"inconclusive: 70.8 µM [inhibitor, partial curve, poor fit]",–
Cc1ccccc1NC(=O)C1c2cccc[n+]2CC(=O)N1c1c(C)cccc1C (stereo unspecified),"inconclusive: 31.6 µM [inhibitor, partial curve, poor fit]",–
CCOc1ccc(-c2n[nH]c3c2C(c2ccccc2OC)N(c2ccc(Br)cc2)C3=O)cc1 (stereo unspecified),"inconclusive: 5.01 µM [inhibitor, full curve, poor fit]",–
COc1ccc(CN2CCNC(=O)C2CC(=O)N(C)C2CCOCC2)cc1OC (stereo unspecified),–,inactive: -2.47%
O=C(NC[C@H]1Cn2c(-c3ccc(F)cc3)cnc2CO1)c1cnccn1,–,inactive: 18.8% [at 176 µM]
CCN1CCN(C(C(=O)O)c2c[nH]c3ccc(NC(=O)CCC(=O)O)cc23)CC1 (stereo unspecified),"inconclusive: 56.2 µM [inhibitor, single point]",–
Cc1cc(F)ccc1NC(=S)NCCc1ccccc1,"inconclusive: 50.1 µM [inhibitor, partial curve, poor fit]",–
CCCC1NC(=S)N(C2CCCCC2)C1=O (stereo unspecified),"inconclusive: 25.1 µM [inhibitor, full curve, poor fit]",–
CCC(C)(C(=O)NC1CCCCC1)N(Cc1ccco1)C(=O)c1cnccn1 (stereo unspecified),"inconclusive: 70.8 µM [inhibitor, single point]",–
COc1ccc(NC(=O)c2cccc(N3C(=O)C4CC=C(C)CC4C3=O)c2)c(OC)c1 (stereo unspecified),–,inactive: -18.6%
O=C(c1ccc2c(c1)OCCO2)N(Cc1cccnc1)c1nc2ccc(F)cc2s1,"inconclusive: 141 µM [inhibitor, partial curve, poor fit]",–
Cc1ccc(C(=O)CC2(O)C(=O)N(CCc3ccccc3)c3ccc(Br)cc32)o1 (stereo unspecified),"inconclusive: 112 µM [inhibitor, single point]",–
Cc1ccc(-c2nc(CSc3nnnn3CC(C)C)co2)c(C)c1,"inconclusive: 79.4 µM [inhibitor, single point]",–
CCC(=O)NC1=C(Cl)C(=O)C(NC(=O)CC)=C(Cl)C1=O,"inconclusive: 1.58 µM [inhibitor, full curve, poor fit]",–
CCN1CCN(c2ccc(S(=O)(=O)N3CCOCC3)cc2NC(=O)C2CCC(C(C)(C)C)CC2)CC1 (stereo unspecified),"inconclusive: 44.7 µM [inhibitor, partial curve, poor fit]",–
N#Cc1c(N)oc(-c2ccccc2)c1-c1ccccc1,"inconclusive: 44.7 µM [inhibitor, partial curve]",–
CC(=O)N1CCC(N2CCOC[C@H]2c2ncc(-c3ccc(C(F)(F)F)cc3)[nH]2)CC1,–,inactive: 5.91% [at 176 µM]
CC(C)CC(=O)Nc1ccc(C(=O)CN2CCN(c3ccc(O)cc3)CC2)cc1,"inconclusive: 79.4 µM [inhibitor, partial curve, poor fit]",–
COc1ccc(N/C=C/C(=O)c2ccc(OC)c(OC)c2)cc1,"inconclusive: 89.1 µM [inhibitor, partial curve, poor fit]",–

SMILES,Potency,"activity change, negative = inhibition"
O=C(CSCc1ccc(Cl)cc1)N/N=C/c1ccc(OCC(=O)Nc2ccccc2)cc1,–,inactive: -1.67%
Cc1ccc(NC(=O)Cn2c(=O)n(Cc3ccco3)c(=O)c3ccccc32)cc1,"inconclusive: 126 µM [inhibitor, partial curve, poor fit]",–
COc1ccc(C(=O)Nc2nc3ccc(S(C)(=O)=O)cc3s2)cc1,"inconclusive: 100 µM [inhibitor, single point]",–
Cc1ccc(N2C(=O)Cc3ccccc3C2=O)cc1,–,inactive: 6.64%
O=C(Nc1ccc(Cl)cc1)P(=O)(O)c1ccccc1,–,inactive: -20.3%
COc1ccc(-c2ccnc3c(-c4ccc(F)cc4)c(C)nn23)cc1OC,"inconclusive: 50.1 µM [inhibitor, partial curve, poor fit]",–
c1ccc(OCc2nn3c(CN4CCOCC4)nnc3s2)cc1,active: 10 µM,–
Nc1c(C(=O)c2ccc(F)cc2)sc2nc3c(cc12)CN(Cc1ccccc1)CC3,"inconclusive: 100 µM [inhibitor, partial curve, poor fit]",–
CC(CCN1CCC(C(O)(c2ccccc2)c2ccccc2)CC1)Oc1ccc(C#N)cc1F (stereo unspecified),"inconclusive: 70.8 µM [inhibitor, single point]",–
CCn1c(NC(=O)c2oc3ccccc3c2CSC)nc2ccccc21,–,inactive: -1.73%
COc1cccc(C2Oc3ccccc3C3CC(c4cccs4)=NN32)c1 (stereo unspecified),"inconclusive: 20 µM [inhibitor, partial curve, poor fit]",–
COc1ccc(-c2nc3cc(NC(=O)c4ccc5c(c4)OCO5)ccc3o2)cc1,"inconclusive: 112 µM [inhibitor, partial curve, poor fit]",–
CC1CN(C(=O)N2CCC(C(=O)NC3CCCCCC3)CC2)c2cc(Cl)ccc2O1 (stereo unspecified),–,inactive: 3.46%
N#CC(c1nc2ccccc2nc1N1CCCC1)S(=O)(=O)c1ccccc1 (stereo unspecified),"inconclusive: 4.47 µM [inhibitor, full curve, poor fit]",–
CCc1ccccc1-n1c(-c2ccncc2)n[nH]c1=S,"inconclusive: 35.5 µM [inhibitor, full curve, poor fit]",–
Cc1c(C(=O)NNC(=S)Nc2ccc(S(N)(=O)=O)cc2)oc2ccccc12,"inconclusive: 44.7 µM [inhibitor, partial curve, poor fit]",–
O=C(Cn1cc(SCc2cccc(Cl)c2)c2ccccc21)N1CCOCC1,"inconclusive: 35.5 µM [inhibitor, partial curve, poor fit]",–
Cc1cccc(-c2nc(CS(=O)CC(=O)NC3CCCCC3)c(C)o2)c1 (stereo unspecified),–,inactive: -9.39%
COc1ccc(OCCCC(=O)N(C)CC(=O)Nc2c(C)cccc2C)cc1,"inconclusive: 22.4 µM [inhibitor, partial curve, poor fit]",–
O=C(NCCN1CCC(n2c(=O)[nH]c3ccccc32)CC1)c1cccc2c1-c1ccccc1C2=O,"inconclusive: 44.7 µM [inhibitor, single point]",–
O=C(NC(=S)NCCc1ccc(Cl)cc1)c1ccco1,"inconclusive: 44.7 µM [inhibitor, partial curve]",–
CCCCNC(=S)NCc1ccc2[nH]c3c(c2c1)CCCC3,"inconclusive: 31.6 µM [inhibitor, partial curve, poor fit]",–

# Ordered by SMILES length (high to low): part of the list above
SMILES,Potency,"activity change, negative = inhibition"
COc1ccc(-c2nc3cc(NC(=O)c4ccc5c(c4)OCO5)ccc3o2)cc1,"inconclusive: 112 µM [inhibitor, partial curve, poor fit]",–
CCn1c(NC(=O)c2oc3ccccc3c2CSC)nc2ccccc21,–,inactive: -1.73%
Cc1ccc(N2C(=O)Cc3ccccc3C2=O)cc1,–,inactive: 6.64%
